Laboratory results: PubChem BioAssay AID1259254 (NCATS, 2017)
Aim: 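Gene knock-downs that lead to re-replication, shown by excess G2 DNA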 (primary screen). System: human HCT116 colorectal cancer cells. Reagent: single siRNA against human genes. Timing: 3 days. Measurement: 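Nuclei stained with Hoechst and imaged; cell-cycle phase assigned by DNA content; G2 share scaled per plate, non-targeting siRNA 0%, GMNN siRNA 100%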. Scale: G2 robust z-score and G2 cells, % of GMNN control: higher = more G2 cells, more excess DNA replication; raw share of cells in G2: higher = larger share of cells with G2 DNA content. Hit rule: 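An siRNA counts as active if its G2 robust z-score lies at least 5 MADs above the screen median; here such calls match roughly 38% of GMNN control or more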.
This is a random part of about 59,000 reagents. Over the whole deposit, about 1,550 (2.6%) are marked active. 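G2 share is only a proxy for re-replication; each gene was hit by three separate siRNAs, and active genes were retested.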 Raw values are not corrected between plates. A number with no mark means an inactive call. Reagents against one gene are numbered here. Not stated in the record: the amount of reagent.

target gene	reagent no.	G2 robust z-score	G2 cells, % of GMNN control	raw share of cells in G2 (%)
IL17B	1	0.193	4.33	5.51
IL17B	2	0.454	6.16	6.88
IL17B	3	1.6	14.2	7.75
AMBN	1	0.0825	3.55	6.97
AMBN	2	-1.04	-4.37	2.49
AMBN	3	0.977	9.84	7.38
RPL23P7	1	2.85	23.1	11
RPL23P7	2	1.12	10.8	7.8
RPL23P7	3	-0.0585	2.56	4.39
C11orf71	1	3.35	26.5	13.1
C11orf71	2	-0.853	-3.04	2.99
C11orf71	3	-0.268	1.08	3.55
OR11H4	1	-0.952	-3.73	2.49
OR11H4	2	1.54	13.8	9.4
OR11H4	3	2.17	18.2	12.4
SPESP1	1	0.211	4.45	5.19
SPESP1	2	0.0649	3.42	4.3
SPESP1	3	-0.675	-1.78	2.63
POLK	1	0.263	4.81	8.14
POLK	2	-1.18	-5.33	2.28
POLK	3	-0.933	-3.6	2.42
DHRS1	1	-1.11	-4.83	2.89
DHRS1	2	1.37	12.6	11.5
DHRS1	3	0.111	3.75	5.9
ANK3	1	-1.15	-5.11	2.09
ANK3	2	-0.917	-3.48	3.53
ANK3	3	0.0532	3.34	6.26
RHBDD2	1	0.029	3.17	4.03
RHBDD2	2	-0.12	2.12	5.18
RHBDD2	3	0.619	7.32	7.96
PDCD6IP	1	0.312	5.16	4.96
PDCD6IP	2	0.205	4.41	6.87
PDCD6IP	3	-0.62	-1.4	4.18
NCOA4P4	1	-0.0947	2.3	4.51
NCOA4P4	2	0.423	5.94	5.67
NCOA4P4	3	-0.687	-1.86	2.49
STK25	1	1.04	10.3	8.8
STK25	2	0.325	5.26	7.1
STK25	3	0.149	4.01	4.97
ESAM	1	2.61	21.3	15.6
ESAM	2	-0.756	-2.35	3.96
ESAM	3	2.29	19.1	11.7
GOLGA8G	1	-0.787	-2.57	2.7
GOLGA8G	2	1.58	14.1	8.5
GOLGA8G	3	1.44	13.1	7.25
POLR3A	1	-0.253	1.19	4.55
POLR3A	2	1.51	13.6	11.8
POLR3A	3	0.15	4.02	5.24
